Data from the supplement of paper PMC10849652.
The list shows a part of the results.

Chains of the proteins cited; added tags and fusions are not shown. Lines headed by an entry give the natural chain unless they say otherwise; changes in a name come on top.
UniProt Q8WVM8, whole entry, looked up: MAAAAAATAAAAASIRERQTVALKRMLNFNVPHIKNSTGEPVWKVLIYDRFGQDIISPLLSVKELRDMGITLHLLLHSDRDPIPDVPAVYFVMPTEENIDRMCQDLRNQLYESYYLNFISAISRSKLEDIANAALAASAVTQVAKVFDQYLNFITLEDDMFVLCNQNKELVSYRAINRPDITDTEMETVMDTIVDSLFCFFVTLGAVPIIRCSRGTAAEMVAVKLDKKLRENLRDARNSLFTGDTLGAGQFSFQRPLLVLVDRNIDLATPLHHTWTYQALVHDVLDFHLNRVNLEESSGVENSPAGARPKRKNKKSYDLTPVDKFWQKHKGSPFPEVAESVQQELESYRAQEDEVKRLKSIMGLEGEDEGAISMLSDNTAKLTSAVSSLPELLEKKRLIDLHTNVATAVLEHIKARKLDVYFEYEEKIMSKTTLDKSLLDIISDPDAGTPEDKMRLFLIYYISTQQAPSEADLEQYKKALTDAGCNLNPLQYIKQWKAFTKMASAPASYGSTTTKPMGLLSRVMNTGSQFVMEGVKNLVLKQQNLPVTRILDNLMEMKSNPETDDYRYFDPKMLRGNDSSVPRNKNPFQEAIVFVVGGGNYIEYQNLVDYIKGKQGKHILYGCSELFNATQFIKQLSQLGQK
UniProt Q99719: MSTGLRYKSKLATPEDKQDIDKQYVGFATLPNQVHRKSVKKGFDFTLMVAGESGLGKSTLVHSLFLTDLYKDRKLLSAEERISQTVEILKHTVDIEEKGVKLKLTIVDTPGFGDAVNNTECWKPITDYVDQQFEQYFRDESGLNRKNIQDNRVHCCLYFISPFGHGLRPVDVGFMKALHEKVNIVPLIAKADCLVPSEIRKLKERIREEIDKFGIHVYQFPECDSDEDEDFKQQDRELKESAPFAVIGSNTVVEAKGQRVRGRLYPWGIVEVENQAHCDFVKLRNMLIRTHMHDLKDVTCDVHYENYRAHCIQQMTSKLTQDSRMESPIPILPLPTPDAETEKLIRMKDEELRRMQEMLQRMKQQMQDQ
UniProt O95486: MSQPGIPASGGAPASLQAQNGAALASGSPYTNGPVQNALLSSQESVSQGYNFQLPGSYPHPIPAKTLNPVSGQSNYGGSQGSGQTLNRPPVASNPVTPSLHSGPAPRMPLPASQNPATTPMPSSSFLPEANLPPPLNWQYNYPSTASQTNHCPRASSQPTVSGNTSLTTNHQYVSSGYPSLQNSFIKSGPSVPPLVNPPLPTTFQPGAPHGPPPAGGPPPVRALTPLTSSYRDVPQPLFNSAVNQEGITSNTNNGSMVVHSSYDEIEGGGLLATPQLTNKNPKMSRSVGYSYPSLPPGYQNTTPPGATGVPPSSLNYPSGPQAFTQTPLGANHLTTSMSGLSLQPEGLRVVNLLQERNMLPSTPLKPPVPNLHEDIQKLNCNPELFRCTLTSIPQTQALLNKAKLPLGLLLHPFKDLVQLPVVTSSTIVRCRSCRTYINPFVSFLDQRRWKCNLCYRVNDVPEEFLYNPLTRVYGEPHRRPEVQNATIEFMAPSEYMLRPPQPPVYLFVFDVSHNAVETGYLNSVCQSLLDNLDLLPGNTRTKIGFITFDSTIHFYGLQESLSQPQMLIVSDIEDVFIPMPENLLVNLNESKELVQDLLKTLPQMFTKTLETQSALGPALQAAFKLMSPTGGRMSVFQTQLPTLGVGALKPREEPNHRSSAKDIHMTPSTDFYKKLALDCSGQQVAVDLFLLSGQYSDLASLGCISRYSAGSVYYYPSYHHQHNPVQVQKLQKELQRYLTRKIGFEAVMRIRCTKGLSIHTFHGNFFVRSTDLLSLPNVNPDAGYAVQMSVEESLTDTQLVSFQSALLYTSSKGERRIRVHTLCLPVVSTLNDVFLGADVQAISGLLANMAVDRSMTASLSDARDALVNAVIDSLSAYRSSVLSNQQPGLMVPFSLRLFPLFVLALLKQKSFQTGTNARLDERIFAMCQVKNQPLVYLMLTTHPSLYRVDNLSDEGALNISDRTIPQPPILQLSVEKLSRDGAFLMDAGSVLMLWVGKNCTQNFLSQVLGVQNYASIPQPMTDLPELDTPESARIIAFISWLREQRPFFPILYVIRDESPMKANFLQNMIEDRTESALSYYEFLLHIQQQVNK
UniProt O43819: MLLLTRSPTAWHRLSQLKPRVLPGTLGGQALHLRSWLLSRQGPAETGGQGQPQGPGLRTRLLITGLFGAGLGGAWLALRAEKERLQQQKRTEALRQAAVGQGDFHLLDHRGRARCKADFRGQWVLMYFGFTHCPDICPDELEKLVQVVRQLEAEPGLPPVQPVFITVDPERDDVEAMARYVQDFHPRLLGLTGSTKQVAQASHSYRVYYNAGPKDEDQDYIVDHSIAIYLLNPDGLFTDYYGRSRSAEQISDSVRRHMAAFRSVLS
UniProt Q6IQ49: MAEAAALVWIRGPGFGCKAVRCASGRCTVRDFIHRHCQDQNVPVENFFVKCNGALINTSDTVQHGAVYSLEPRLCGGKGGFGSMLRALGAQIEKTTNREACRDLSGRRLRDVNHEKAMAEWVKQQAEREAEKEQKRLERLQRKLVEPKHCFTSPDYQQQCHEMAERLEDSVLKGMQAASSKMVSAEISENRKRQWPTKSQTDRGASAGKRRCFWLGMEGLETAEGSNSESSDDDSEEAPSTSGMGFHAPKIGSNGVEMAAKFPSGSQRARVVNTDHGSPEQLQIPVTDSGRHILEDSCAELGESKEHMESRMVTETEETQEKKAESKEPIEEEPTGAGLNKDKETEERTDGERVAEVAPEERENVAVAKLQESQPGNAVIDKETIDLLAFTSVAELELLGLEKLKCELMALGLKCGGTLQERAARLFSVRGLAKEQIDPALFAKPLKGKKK
UniProt Q5PRF9: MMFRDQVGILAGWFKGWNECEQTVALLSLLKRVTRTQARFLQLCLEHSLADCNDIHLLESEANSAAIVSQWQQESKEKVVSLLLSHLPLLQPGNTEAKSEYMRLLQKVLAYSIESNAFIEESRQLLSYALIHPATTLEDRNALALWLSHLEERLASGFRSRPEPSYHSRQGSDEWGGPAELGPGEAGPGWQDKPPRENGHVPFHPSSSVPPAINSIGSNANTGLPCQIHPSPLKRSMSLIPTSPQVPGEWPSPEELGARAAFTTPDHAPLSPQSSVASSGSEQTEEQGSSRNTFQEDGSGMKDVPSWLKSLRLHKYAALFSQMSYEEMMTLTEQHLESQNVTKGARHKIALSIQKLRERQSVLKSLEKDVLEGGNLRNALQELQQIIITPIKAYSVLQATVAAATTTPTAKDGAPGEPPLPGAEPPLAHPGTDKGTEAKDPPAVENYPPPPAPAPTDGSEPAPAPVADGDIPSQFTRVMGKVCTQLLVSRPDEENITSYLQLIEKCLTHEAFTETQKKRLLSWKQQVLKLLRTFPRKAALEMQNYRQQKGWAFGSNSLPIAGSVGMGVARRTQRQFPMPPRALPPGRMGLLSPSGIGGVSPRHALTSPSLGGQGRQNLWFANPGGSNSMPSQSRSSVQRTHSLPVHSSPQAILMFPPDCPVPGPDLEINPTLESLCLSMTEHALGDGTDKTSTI
UniProt P60468, whole entry, looked up: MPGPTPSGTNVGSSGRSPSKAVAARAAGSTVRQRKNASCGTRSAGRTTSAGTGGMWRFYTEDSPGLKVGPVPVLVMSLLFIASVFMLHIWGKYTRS
UniProt O14828: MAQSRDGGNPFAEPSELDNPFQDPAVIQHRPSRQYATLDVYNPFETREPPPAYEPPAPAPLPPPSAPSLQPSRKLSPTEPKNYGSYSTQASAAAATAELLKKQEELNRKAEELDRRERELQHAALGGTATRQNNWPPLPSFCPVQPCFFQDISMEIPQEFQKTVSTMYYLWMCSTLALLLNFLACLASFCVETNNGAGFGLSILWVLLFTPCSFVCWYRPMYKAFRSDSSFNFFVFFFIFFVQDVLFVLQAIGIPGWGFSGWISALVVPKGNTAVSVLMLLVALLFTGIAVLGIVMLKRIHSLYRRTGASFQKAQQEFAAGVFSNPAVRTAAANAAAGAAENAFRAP
UniProt Q14108: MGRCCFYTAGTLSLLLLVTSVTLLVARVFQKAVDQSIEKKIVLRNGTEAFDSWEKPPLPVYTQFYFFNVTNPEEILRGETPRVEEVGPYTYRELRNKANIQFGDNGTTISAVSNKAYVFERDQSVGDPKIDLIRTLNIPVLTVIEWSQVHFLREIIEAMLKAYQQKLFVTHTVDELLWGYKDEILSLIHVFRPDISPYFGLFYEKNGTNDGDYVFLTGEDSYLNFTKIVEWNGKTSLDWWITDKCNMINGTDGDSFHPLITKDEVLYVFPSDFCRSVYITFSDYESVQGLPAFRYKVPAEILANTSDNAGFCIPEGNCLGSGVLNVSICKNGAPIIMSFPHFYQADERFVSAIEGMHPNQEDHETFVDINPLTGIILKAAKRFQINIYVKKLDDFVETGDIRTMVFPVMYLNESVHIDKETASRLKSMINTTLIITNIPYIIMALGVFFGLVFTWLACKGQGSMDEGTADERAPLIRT
UniProt Q8IZQ5, whole entry, looked up: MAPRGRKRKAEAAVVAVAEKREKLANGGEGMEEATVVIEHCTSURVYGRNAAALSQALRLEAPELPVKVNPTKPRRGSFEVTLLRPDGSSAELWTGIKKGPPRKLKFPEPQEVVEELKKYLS
UniProt Q15424: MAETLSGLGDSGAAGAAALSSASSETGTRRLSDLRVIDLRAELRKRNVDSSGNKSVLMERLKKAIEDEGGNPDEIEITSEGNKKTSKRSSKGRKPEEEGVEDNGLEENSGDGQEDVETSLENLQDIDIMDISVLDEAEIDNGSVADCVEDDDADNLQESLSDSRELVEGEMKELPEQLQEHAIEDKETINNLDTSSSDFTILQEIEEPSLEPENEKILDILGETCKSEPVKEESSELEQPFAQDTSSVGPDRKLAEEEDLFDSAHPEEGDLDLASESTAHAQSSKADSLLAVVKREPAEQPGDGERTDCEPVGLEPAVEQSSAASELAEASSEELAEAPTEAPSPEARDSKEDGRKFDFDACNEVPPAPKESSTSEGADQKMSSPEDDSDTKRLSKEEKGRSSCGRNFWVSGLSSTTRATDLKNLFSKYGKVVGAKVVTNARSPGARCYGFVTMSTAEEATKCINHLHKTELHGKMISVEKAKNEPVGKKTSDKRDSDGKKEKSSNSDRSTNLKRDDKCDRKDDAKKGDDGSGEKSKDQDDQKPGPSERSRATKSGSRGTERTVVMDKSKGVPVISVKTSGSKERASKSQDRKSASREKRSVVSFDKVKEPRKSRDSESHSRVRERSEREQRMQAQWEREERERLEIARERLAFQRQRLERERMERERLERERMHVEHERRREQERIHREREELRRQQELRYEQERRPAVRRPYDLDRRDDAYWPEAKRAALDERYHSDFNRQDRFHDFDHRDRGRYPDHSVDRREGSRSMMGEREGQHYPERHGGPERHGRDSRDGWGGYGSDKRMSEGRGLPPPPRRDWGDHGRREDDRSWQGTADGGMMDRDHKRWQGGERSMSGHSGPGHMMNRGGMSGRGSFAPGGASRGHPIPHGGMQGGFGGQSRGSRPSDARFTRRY
UniProt Q15437: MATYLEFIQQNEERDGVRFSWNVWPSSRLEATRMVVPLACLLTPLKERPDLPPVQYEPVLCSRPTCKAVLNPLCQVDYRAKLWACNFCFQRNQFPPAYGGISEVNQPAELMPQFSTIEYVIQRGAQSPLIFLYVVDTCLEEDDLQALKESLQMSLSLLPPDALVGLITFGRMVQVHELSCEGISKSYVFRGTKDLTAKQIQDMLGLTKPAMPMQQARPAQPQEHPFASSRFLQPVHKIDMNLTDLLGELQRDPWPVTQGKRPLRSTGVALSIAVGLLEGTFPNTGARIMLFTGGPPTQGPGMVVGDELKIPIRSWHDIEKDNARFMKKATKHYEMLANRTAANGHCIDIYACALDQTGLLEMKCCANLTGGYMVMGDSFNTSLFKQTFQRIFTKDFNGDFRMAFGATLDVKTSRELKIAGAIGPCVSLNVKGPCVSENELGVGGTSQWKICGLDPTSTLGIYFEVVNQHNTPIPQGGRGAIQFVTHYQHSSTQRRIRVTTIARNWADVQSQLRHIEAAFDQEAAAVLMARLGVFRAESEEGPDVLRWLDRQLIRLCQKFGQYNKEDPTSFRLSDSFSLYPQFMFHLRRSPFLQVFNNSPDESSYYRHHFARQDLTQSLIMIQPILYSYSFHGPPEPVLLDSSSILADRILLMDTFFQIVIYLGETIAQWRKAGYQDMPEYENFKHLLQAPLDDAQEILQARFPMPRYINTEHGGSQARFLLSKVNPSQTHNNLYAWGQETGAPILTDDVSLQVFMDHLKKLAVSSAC
UniProt Q96EE3: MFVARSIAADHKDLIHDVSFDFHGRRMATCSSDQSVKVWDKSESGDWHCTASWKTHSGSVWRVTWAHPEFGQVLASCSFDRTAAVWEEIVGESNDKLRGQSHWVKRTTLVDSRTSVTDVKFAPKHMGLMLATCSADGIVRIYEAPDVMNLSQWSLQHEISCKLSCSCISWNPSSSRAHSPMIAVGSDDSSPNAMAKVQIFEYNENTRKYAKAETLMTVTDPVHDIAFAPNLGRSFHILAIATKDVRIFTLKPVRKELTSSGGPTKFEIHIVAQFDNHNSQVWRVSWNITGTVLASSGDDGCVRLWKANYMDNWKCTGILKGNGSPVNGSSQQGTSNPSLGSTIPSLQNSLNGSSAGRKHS

Assays:
Experiment in all cases: log2 fold change, soluble protein after heating vs DMSO (PISA); higher = thermal stabilisation; K562 lysate, 10 uM; active = over 0.2 and 3.5 SD of the protein, either way, in both replicates (recomputed)
lapatinib = compound: CS(=O)(=O)CCNCc1ccc(-c2ccc3ncnc(Nc4ccc(OCc5cccc(F)c5)c(Cl)c4)c3c2)o1 [lapatinib]
Procedure, shortened: (§1)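 Dounce homogenisation of K562 pellets in PBS pH 7.4 with 1 mM MgCl2 produced a crude extract, used at 1 mg/mL protein. Exposure to 10 μM compound lasted 30 min, and aliquots were then heated for 3 min across 48°C-58°C, pooled and brought to 0.5% NP-40 at 4°C. The supernatant after 21,000xg for 90 min was quantified by TMTpro 16plex LC-MS/MS with channel sums equalised. Duplicate values are given as log-two fold change in thermal stability relative to solvent controls.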

pictilisib = compound: CS(=O)(=O)N1CCN(Cc2cc3nc(-c4cccc5[nH]ncc45)nc(N4CCOCC4)c3s2)CC1 [pictilisib]
Procedure, shortened: as §1

crizotinib = compound: C[C@@H](Oc1cc(-c2cnn(C3CCNCC3)c2)cnc1N)c1c(Cl)ccc(F)c1Cl [crizotinib]
Procedure, shortened: as §1

[1] = compound: C[C@H](C1=CC=C(C=C1)C(=O)NC2=C3C=CNC3=NC=C2)N
Procedure, shortened: as §1

duvelisib = compound: C[C@H](Nc1ncnc2nc[nH]c12)c1cc2cccc(Cl)c2c(=O)n1-c1ccccc1 [duvelisib]
Procedure, shortened: as §1

gandotinib = compound: Cc1cc(Nc2cc(CN3CCOCC3)c3nc(C)c(Cc4ccc(Cl)cc4F)n3n2)n[nH]1 [gandotinib]
Procedure, shortened: as §1

tozasertib = compound: Cc1cc(Nc2cc(N3CCN(C)CC3)nc(Sc3ccc(NC(=O)C4CC4)cc3)n2)n[nH]1 [tozasertib]
Procedure, shortened: as §1

doramapimod = compound: Cc1ccc(-n2nc(C(C)(C)C)cc2NC(=O)Nc2ccc(OCCN3CCOCC3)c3ccccc23)cc1 [doramapimod]
Procedure, shortened: as §1

bafetinib = compound: Cc1ccc(NC(=O)c2ccc(CN3CC[C@H](N(C)C)C3)c(C(F)(F)F)c2)cc1Nc1nccc(-c2cncnc2)n1 [bafetinib]
Procedure, shortened: as §1

[2] = compound: Cc1cccc(CC(=O)N2CCc3c2ccc(-c2cn(C)c4ncnc(N)c24)c3F)n1
Procedure, shortened: as §1

nilotinib = compound: Cc1cn(-c2cc(NC(=O)c3ccc(C)c(Nc4nccc(-c5cccnc5)n4)c3)cc(C(F)(F)F)c2)cn1 [nilotinib]
Procedure, shortened: as §1

[3] = compound: Cc1nc(Nc2n[nH]c3c2CN(C(=O)N[C@H](CN(C)C)c2ccccc2)C3(C)C)c2sccc2n1
Procedure, shortened: as §1

dasatinib = compound: Cc1nc(Nc2ncc(C(=O)Nc3c(C)cccc3Cl)s2)cc(N2CCN(CCO)CC2)n1 [dasatinib]
Procedure, shortened: as §1

[4] = compound: Cc1ncc(-c2ccnc(Nc3ccc(S(C)(=O)=O)cc3)n2)n1C(C)C
Procedure, shortened: as §1

[5] = compound: Cn1cc(-c2ccc3c(c2)CCN3C(=O)Cc2cccc(C(F)(F)F)c2)c2c(N)ncnc21
Procedure, shortened: as §1

quisinostat = compound: Cn1cc(CNCC2CCN(c3ncc(C(=O)NO)cn3)CC2)c2ccccc21 [quisinostat]
Procedure, shortened: as §1

tipifarnib = compound: Cn1cncc1[C@@](N)(c1ccc(Cl)cc1)c1ccc2c(c1)c(-c1cccc(Cl)c1)cc(=O)n2C [tipifarnib]
Procedure, shortened: as §1

[6] = compound: NC(=O)Nc1cc(-c2cccc(F)c2)sc1C(=O)N[C@H]1CCCNC1
Procedure, shortened: as §1

[7] = compound: NC(=O)c1cnc(N[C@@H]2CCCC[C@@H]2N)nc1Nc1cccc(-n2nccn2)c1
Procedure, shortened: as §1

[8] = compound: NC1(c2ccc(-c3nc4ccn5c(=O)[nH]nc5c4cc3-c3ccccc3)cc2)CCC1
Procedure, shortened: as §1

Measured: log2 fold change

SCFD1 (UniProt Q8WVM8)
inactive: lapatinib -0.01 | pictilisib -0.037 | crizotinib -0.045 | [1] -0.035 | duvelisib -0.022 | gandotinib -0.031 | tozasertib -0.017 | doramapimod 0 | bafetinib -0.028 | [2] 0.018 | nilotinib 0.007 | [3] -0.02 | dasatinib -0.023 | [4] 0.021 | [5] 0.005 | quisinostat 0.012 | tipifarnib 0.013 | [6] 0.013 | [7] 0.017 | [8] -0.016

SEPTIN5 (UniProt Q99719)
inactive: lapatinib 0 | pictilisib 0.034 | crizotinib 0.001 | [1] 0.018 | duvelisib 0.033 | gandotinib -0.014 | tozasertib 0.029 | doramapimod 0.023 | bafetinib 0.106 | [2] -0.053 | nilotinib 0.024 | [3] 0.019 | dasatinib -0.007 | [4] -0.028 | [5] -0.054 | quisinostat -0.018 | tipifarnib 0.038 | [6] -0.014 | [7] -0.022 | [8] 0.001

SEC24A (UniProt O95486)
inactive: lapatinib -0.004 | pictilisib -0.03 | crizotinib 0.009 | [1] 0.048 | duvelisib 0.027 | gandotinib -0.077 | tozasertib -0.018 | doramapimod 0.006 | bafetinib 0.003 | [2] -0.002 | nilotinib 0.033 | [3] -0.011 | dasatinib -0.03 | [4] -0.007 | [5] 0 | quisinostat 0.005 | tipifarnib -0.042 | [6] 0.006 | [7] -0.004 | [8] -0.019

SCO2 (UniProt O43819)
inactive: lapatinib 0.118 | pictilisib -0.057 | crizotinib 0.026 | [1] -0.163 | duvelisib 0.092 | gandotinib 0.048 | tozasertib -0.007 | doramapimod 0.002 | bafetinib 0.029 | [2] 0.101 | nilotinib 0.15 | [3] -0.283 | dasatinib -0.05 | [4] -0.337 | [5] 0.106 | quisinostat 0.007 | tipifarnib -0.062 | [6] -0.005 | [7] 0.05 | [8] -0.1

SCAF4 (UniProt O95104)
inactive: lapatinib -0.015 | pictilisib -0.084 | crizotinib -0.046 | [1] -0.049 | duvelisib 0.043 | gandotinib -0.051 | tozasertib 0.011 | doramapimod -0.003 | bafetinib -0.024 | [2] 0.066 | nilotinib -0.031 | [3] 0.007 | dasatinib -0.044 | [4] 0.059 | [5] 0.012 | quisinostat -0.081 | tipifarnib -0.068 | [6] 0.025 | [7] 0 | [8] 0.034

SDE2 (UniProt Q6IQ49)
inactive: lapatinib 0.025 | pictilisib 0.003 | crizotinib 0.022 | [1] -0.05 | duvelisib 0.011 | gandotinib 0.094 | tozasertib 0.012 | doramapimod 0.027 | bafetinib -0.044 | [2] 0.007 | nilotinib 0.001 | [3] 0.027 | dasatinib -0.02 | [4] 0.009 | [5] -0.037 | quisinostat 0.024 | tipifarnib 0.013 | [6] -0.006 | [7] -0.014 | [8] 0.048

SAMD4B (UniProt Q5PRF9)
inactive: lapatinib 0 | pictilisib -0.015 | crizotinib -0.017 | [1] -0.1 | duvelisib 0.045 | gandotinib 0.002 | tozasertib 0.048 | doramapimod -0.001 | bafetinib 0.011 | [2] 0.1 | nilotinib -0.033 | [3] 0.039 | dasatinib 0.014 | [4] 0.021 | [5] 0.024 | quisinostat -0.044 | tipifarnib -0.014 | [6] 0.028 | [7] 0 | [8] -0.02

SEC61B (UniProt P60468)
inactive: lapatinib 0.028 | pictilisib 0.069 | crizotinib 0.091 | [1] -0.037 | duvelisib 0.007 | gandotinib 0.001 | tozasertib 0.053 | doramapimod 0.043 | bafetinib 0.015 | [2] 0.036 | nilotinib -0.056 | [3] 0.031 | dasatinib 0.084 | [4] -0.053 | [5] -0.039 | quisinostat 0.088 | tipifarnib -0.024 | [6] -0.043 | [7] 0.014 | [8] -0.008

Two entries drawn at random from the list so far:
SDE2 (UniProt Q6IQ49)
inactive: lapatinib 0.025 | pictilisib 0.003 | crizotinib 0.022 | [1] -0.05 | duvelisib 0.011 | gandotinib 0.094 | tozasertib 0.012 | doramapimod 0.027 | bafetinib -0.044 | [2] 0.007 | nilotinib 0.001 | [3] 0.027 | dasatinib -0.02 | [4] 0.009 | [5] -0.037 | quisinostat 0.024 | tipifarnib 0.013 | [6] -0.006 | [7] -0.014 | [8] 0.048

SCAF4 (UniProt O95104)
inactive: lapatinib -0.015 | pictilisib -0.084 | crizotinib -0.046 | [1] -0.049 | duvelisib 0.043 | gandotinib -0.051 | tozasertib 0.011 | doramapimod -0.003 | bafetinib -0.024 | [2] 0.066 | nilotinib -0.031 | [3] 0.007 | dasatinib -0.044 | [4] 0.059 | [5] 0.012 | quisinostat -0.081 | tipifarnib -0.068 | [6] 0.025 | [7] 0 | [8] 0.034

Additional records

SCAMP3 (UniProt O14828)
inactive: lapatinib 0.035 | pictilisib -0.012 | crizotinib 0.013 | [1] -0.004 | duvelisib -0.004 | gandotinib 0.014 | tozasertib 0.006 | doramapimod -0.052 | bafetinib 0.117 | [2] -0.001 | nilotinib 0.008 | [3] 0.014 | dasatinib 0.034 | [4] -0.009 | [5] 0 | quisinostat 0.01 | tipifarnib -0.018 | [6] -0.032 | [7] -0.018 | [8] 0.027

SCARB2 (UniProt Q14108)
inactive: lapatinib 0.002 | pictilisib -0.026 | crizotinib 0.034 | [1] 0.106 | duvelisib 0.052 | gandotinib -0.05 | tozasertib 0.036 | doramapimod -0.015 | bafetinib 0.004 | [2] -0.085 | nilotinib 0.003 | [3] 0.026 | dasatinib 0.018 | [4] 0.007 | [5] 0.009 | quisinostat -0.014 | tipifarnib 0.008 | [6] 0.011 | [7] -0.001 | [8] -0.011

SELENOH (UniProt Q8IZQ5)
inactive: lapatinib -0.042 | pictilisib -0.02 | crizotinib -0.001 | [1] 0.193 | duvelisib -0.004 | gandotinib -0.036 | tozasertib -0.03 | doramapimod 0.006 | bafetinib -0.035 | [2] -0.069 | nilotinib 0.004 | [3] -0.007 | dasatinib -0.03 | [4] 0.009 | [5] 0.01 | quisinostat -0.02 | tipifarnib 0.046 | [6] -0.021 | [7] 0.01 | [8] 0.035

SAFB isoform 3 (UniProt Q15424)
inactive: lapatinib -0.006 | pictilisib 0.008 | crizotinib -0.002 | [1] -0.075 | duvelisib -0.011 | gandotinib 0.065 | tozasertib 0.009 | doramapimod -0.011 | bafetinib -0.016 | [2] 0.016 | nilotinib -0.005 | [3] 0.036 | dasatinib 0.026 | [4] -0.045 | [5] 0.003 | quisinostat -0.003 | tipifarnib 0.09 | [6] 0.021 | [7] -0.022 | [8] 0.013

SEC23B (UniProt Q15437)
inactive: lapatinib -0.011 | pictilisib -0.056 | crizotinib 0.013 | [1] 0.006 | duvelisib -0.003 | gandotinib -0.024 | tozasertib 0.022 | doramapimod -0.005 | bafetinib 0.01 | [2] -0.006 | nilotinib -0.011 | [3] 0.01 | dasatinib 0.002 | [4] -0.003 | [5] -0.012 | quisinostat 0.001 | tipifarnib 0.013 | [6] -0.006 | [7] -0.012 | [8] -0.002

SEC31A (UniProt D6REX3)
inactive: lapatinib 0.003 | pictilisib -0.006 | crizotinib -0.02 | [1] -0.03 | duvelisib 0.014 | gandotinib -0.019 | tozasertib 0.004 | doramapimod 0.015 | bafetinib 0.027 | [2] 0.006 | nilotinib 0.008 | [3] -0.002 | dasatinib -0.012 | [4] -0.009 | [5] 0.028 | quisinostat -0.014 | tipifarnib 0.005 | [6] -0.009 | [7] 0.009 | [8] 0.016

SEMA7A (UniProt O75326)
inactive: lapatinib 0.101 | pictilisib -0.036 | crizotinib 0.014 | [1] 0.038 | duvelisib 0.01 | gandotinib -0.007 | tozasertib 0.039 | doramapimod -0.06 | bafetinib 0.007 | [2] -0.054 | nilotinib 0.042 | [3] -0.169 | dasatinib -0.016 | [4] -0.107 | [5] -0.023 | quisinostat -0.006 | tipifarnib -0.174 | [6] 0.006 | [7] 0.024 | [8] -0.233

SEH1L isoform 1 (UniProt Q96EE3)
inactive: lapatinib -0.03 | pictilisib -0.009 | crizotinib 0.01 | [1] -0.027 | duvelisib -0.049 | gandotinib 0.029 | tozasertib 0.011 | doramapimod 0.007 | bafetinib -0.085 | [2] 0.052 | nilotinib -0.009 | [3] -0.019 | dasatinib 0.032 | [4] 0.006 | [5] 0.007 | quisinostat -0.008 | tipifarnib -0.008 | [6] 0 | [7] 0.003 | [8] -0.028
